Taken from: PubChem BioAssay AID1259290 (Sanger Institute, 2017)
Test: 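Identify kinases needed for colorectal cancer cell survival, with or without anchor drugs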 (primary screen). System: human SNUC1 colorectal cancer cells. Reagent: siRNA pool against human genes. Treatment: anchor drugs BYL719 1 µM, cetuximab 5 µg/ml or trametinib 10 nM, or DMSO vehicle alone. Read-out: 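Viability averaged over replicates and scaled to non-targeting siRNA, robust z-score with no drug, and synergy scores by drug for BYL719, cetuximab and trametinib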. Direction: viability z-score, siRNA alone: higher = more viable cells; low values mean essential gene; viability vs control, siRNA alone: higher = more viable cells; synergy score with BYL719 and synergy score with Cetuximab and synergy score with Trametinib: higher = stronger synthetic lethal effect with drug. Hit rule: 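Essential when the robust viability z-score with siRNA alone falls below -3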. Meaning of the calls: active = essential: knock-down alone cut viability (z below -3); inactive = no clear viability loss with knock-down alone.
The whole screen tested 794 reagents; this is a random part of them. 9 of all reagents (1.1%) were called active. 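Calls rest on knock-down alone, not drug synergy; synergy above 0.15 was grouped apart and does not affect calls.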 A number with no mark means an inactive call. Viability is capped at 1. Not stated in the record: the amount of reagent, the time to read-out.

| target gene | PubChem SID | viability z-score, siRNA alone | viability vs control, siRNA alone | synergy score with BYL719 | synergy score with Cetuximab | synergy score with Trametinib |
| --- | --- | --- | --- | --- | --- | --- |
| LYN (GeneID 4067) | SID135620625 | 0.936 | 1 | 0.00781 | -0.0447 | 0.0612 |
| STK4 (GeneID 6789) | SID56478776 | 0.261 | 0.939 | -0.247 | -0.103 | -0.0465 |
| MKNK1 (GeneID 8569) | SID135620901 | -0.0954 | 0.907 | -0.128 | -0.0587 | -0.0657 |
| MPP1 (GeneID 4354) | SID56479235 | -1.86 | 0.748 | -0.142 | -0.0231 | -0.0607 |
| BUB1B (GeneID 701) | SID152154799 | 0.247 | 0.938 | -0.0735 | -0.0303 | 0.123 |
| MAP2K3 (GeneID 5606) | SID152148115 | -0.149 | 0.902 | -0.125 | -0.138 | 0.0691 |
| PDXK (GeneID 8566) | SID56478979 | -0.106 | 0.906 | -0.273 | -0.000321 | -0.102 |
| FXR1 (GeneID 8087) | SID152147249 | -0.0405 | 0.912 | -0.218 | -0.091 | -0.0383 |
| AK7 (GeneID 122481) | SID152153423 | 0.304 | 0.943 | -0.127 | -0.0613 | -0.099 |
| HASPIN (GeneID 83903) | SID152153141 | 0.852 | 0.992 | -0.204 | -0.0401 | -0.00483 |
| PAK2 (GeneID 5062) | SID135620709 | 0.396 | 0.951 | -0.237 | -0.0912 | 0.0263 |
| PRKAB1 (GeneID 5564) | SID134312708 | -2.96 | 0.649 | -0.123 | 0.0446 | -0.211 |
| ARAF (GeneID 369) | SID152151166 | -0.864 | 0.838 | -0.184 | -0.0904 | 0.063 |
| NRBP1 (GeneID 29959) | SID135620974 | 0.239 | 0.937 | -0.0907 | 0.0216 | -0.0155 |
| CERT1 (GeneID 10087) | SID56479254 | 0.376 | 0.95 | -0.161 | -0.0869 | -0.025 |
| CLK4 (GeneID 57396) | SID56478876 | 0.936 | 1 | -0.154 | 0.123 | -0.0359 |
| PI4KB (GeneID 5298) | SID135621252 | 0.118 | 0.926 | -0.0583 | -0.0543 | -0.0388 |
| MAP2K1 (GeneID 5604) | SID56478687 | -1.27 | 0.801 | 0.105 | 0.0152 | 0.0351 |
| MAPK6 (GeneID 5597) | SID56478707 | 0.892 | 0.996 | -0.0607 | -0.0486 | 0.0854 |
| PRKD1 (GeneID 5587) | SID152147507 | 0.936 | 1 | -0.0346 | -0.0447 | -0.0453 |
| PRPS1 (GeneID 5631) | SID56479145 | -1.73 | 0.76 | -0.0952 | -0.141 | 0.0738 |
| RIOK3 (GeneID 8780) | SID152150051 | -3.03 (active) | 0.643 | -0.136 | -0.206 | -0.0339 |
| PHKA2 (GeneID 5256) | SID56479176 | 0.288 | 0.942 | -0.0527 | 0.0688 | -0.0946 |
| MAPKAPK5 (GeneID 8550) | SID56478947 | 0.936 | 1 | 0.0181 | -0.0447 | 0.0533 |
| TBCK (GeneID 93627) | SID56479023 | 0.516 | 0.962 | -0.134 | 0.0642 | 0.085 |
| NIM1K (GeneID 167359) | SID56478948 | -0.98 | 0.827 | -0.0365 | 0.111 | -0.0706 |
| SPHK1 (GeneID 8877) | SID152154122 | -0.329 | 0.886 | -0.222 | -0.0292 | -0.0392 |
| PDK3 (GeneID 5165) | SID152151041 | 0.936 | 1 | 0.00528 | -0.0395 | 0.113 |
| MAP3K12 (GeneID 7786) | SID56478643 | 0.936 | 1 | -0.0876 | -0.0447 | 0.201 |
| MAP3K8 (GeneID 1326) | SID56478664 | 0.936 | 1 | -0.108 | -0.032 | 0.0626 |
| IKBKB (GeneID 3551) | SID152150353 | -0.853 | 0.839 | -0.241 | -0.195 | -0.112 |
| GTF2H1 (GeneID 2965) | SID56479243 | -1.12 | 0.815 | -0.113 | 0.0226 | -0.0381 |
| MAP4K5 (GeneID 11183) | SID56478702 | -1.04 | 0.822 | -0.136 | 0.0442 | 0.00375 |
| HK3 (GeneID 3101) | SID56479104 | -0.0301 | 0.913 | -0.0805 | 0.0232 | -0.00937 |
| MPP3 (GeneID 4356) | SID152152750 | 0.936 | 1 | -0.103 | 0.178 | 0.301 |
| STAG2 (GeneID 10735) | SID152146952 | -0.011 | 0.915 | -0.229 | -0.00933 | -0.144 |
| DGUOK (GeneID 1716) | SID152155858 | -0.0187 | 0.914 | -0.239 | 0.0128 | -0.135 |
| MAP2K4 (GeneID 6416) | SID56478690 | 0.936 | 1 | -0.129 | -0.0447 | -0.021 |
| SIK1 (GeneID 150094) | SID152146842 | 0.306 | 0.943 | -0.157 | -0.00169 | 0.116 |
| CDK2 (GeneID 1017) | SID56478596 | 0.936 | 1 | -0.198 | -0.0447 | 0.0818 |
| CHKA (GeneID 1119) | SID135621235 | -0.3 | 0.889 | 0.0318 | -0.0477 | 0.0292 |
| MAGI1 (GeneID 9223) | SID152150294 | 0.441 | 0.955 | 0.0105 | 0.173 | 0.14 |
| YES1 (GeneID 7525) | SID152156078 | -0.611 | 0.861 | -0.116 | -0.0283 | -0.0894 |
| PDK2 (GeneID 5164) | SID56478952 | -0.172 | 0.9 | -0.0521 | -0.123 | 0.0505 |
| PSKH2 (GeneID 85481) | SID56479040 | 0.731 | 0.981 | -0.213 | 0.141 | 0.122 |
| KSR2 (GeneID 283455) | SID152149204 | -0.291 | 0.889 | -0.083 | 0.0273 | 0.0402 |
| PINK1 (GeneID 65018) | SID152149500 | 0.533 | 0.964 | -0.154 | -0.0794 | 0.155 |
| NLK (GeneID 51701) | SID56478865 | 0.936 | 1 | -0.198 | -0.0447 | 0.0241 |
| HUNK (GeneID 30811) | SID56478785 | 0.936 | 1 | -0.0353 | -0.0447 | 0.199 |
| TRIB1 (GeneID 10221) | SID56478720 | 0.936 | 1 | -0.0874 | -0.0447 | -0.0338 |

4 entries already listed, arranged by “viability vs control, siRNA alone”, high to low.
| target gene | PubChem SID | viability z-score, siRNA alone | viability vs control, siRNA alone | synergy score with BYL719 | synergy score with Cetuximab | synergy score with Trametinib |
| --- | --- | --- | --- | --- | --- | --- |
| MPP3 (GeneID 4356) | SID152152750 | 0.936 | 1 | -0.103 | 0.178 | 0.301 |
| STAG2 (GeneID 10735) | SID152146952 | -0.011 | 0.915 | -0.229 | -0.00933 | -0.144 |
| HK3 (GeneID 3101) | SID56479104 | -0.0301 | 0.913 | -0.0805 | 0.0232 | -0.00937 |
| MAP4K5 (GeneID 11183) | SID56478702 | -1.04 | 0.822 | -0.136 | 0.0442 | 0.00375 |
